# Source: patent US12421535B2, “Biochemically produced sandalwood oil” (FIRMENICH SA, priority 2019, dated 2025)
# For at least one compound, name, drawing or mass did not settle the structure.
# Tested on: NHEK
# Assay: Anti-inflammatory test, cytokine release (ELISA), keratinocytes challenged with TNFα or PMA + A23187
# Assay type: cell-based, human
# Conditions: PMA + A23187 or TNF-α, dexamethasone with the exception of CXCL-5
# Protocol: Monolayer cultures of Normal Human foreskin-derived Dermal Fibroblasts (NHDFs; ATCC, CRL-2522) were used for the anti-inflammatory study. The cells were grown in Dulbecco's Modified Eagle Medium (DMEM, Gibco/Life Technologies, 31885) supplemented with 10% of Foetal Bovine Serum (FBS, Gibco/Life Technologies, 10270) and antibiotics (penicillin/streptomycin, Gibco/Life Technologies, 15140). Monolayer cultures of Normal Human Epidermal Keratinocytes (NHEKs; Lonza, 00192906) were used for the anti-inflammatory study. The cells were grown in Epilife medium containing gentamycin and HKGS (Human Keratinocyte Growth Supplement). […]
# Both NHEK and NHDF cell types were cultured in 24-well plates for 24 h in complete medium before being exposed to the test and reference items. […] At the end of treatment, all the supernatants were collected and stored at −20° C. until further use in specific ELISA assays for the quantification of the extracellular release of IL-8, IL-6, TNF-α, MCP-1 and CXCL5, based on a standard curve, according to the kits supplier's specifications.
# Sandalwood oil of the invention was tested at 20 μg/ml on both keratinocytes and fibroblasts, in a comparison with S. album essential oil. […] After induction of an inflammation state and test compounds application, cell culture supernatants were collected for further ELISA quantification. […]
smiles,measurement,value
C[C@@H]1C[C@H]2[C@@H]3CCC4=CC(=O)C=C[C@]4(C)[C@@]3(F)[C@@H](O)C[C@]2(C)[C@@]1(O)C(=O)CO [Dexamethasone],secretion levels of mediators of inflammation,reduced significantly
